Results as given in patent US20080200439A1, “Methods and compositions for modulating BK channel activity and vasodilation” (University of Tennessee Research Foundation, priority 2006, published 2008).
Values joined by “and” are separate entries in the source; they are usually repeats but may differ in a detail not shown here. Equal values may be shown once. At least one compound was matched to its structure with a doubt left.

Chains of the proteins cited; added tags and fusions are not shown. Lines headed by an entry give the natural chain unless they say otherwise; changes in a name come on top. Residues count along the entry.
UniProt Q16558: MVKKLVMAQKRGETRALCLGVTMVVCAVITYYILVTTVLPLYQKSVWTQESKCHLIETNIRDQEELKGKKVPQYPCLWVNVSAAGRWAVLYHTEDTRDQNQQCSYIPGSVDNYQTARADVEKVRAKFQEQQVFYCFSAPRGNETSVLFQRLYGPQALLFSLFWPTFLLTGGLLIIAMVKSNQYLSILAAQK
UniProt Q62976, 1-1148 isoform Q62976-2: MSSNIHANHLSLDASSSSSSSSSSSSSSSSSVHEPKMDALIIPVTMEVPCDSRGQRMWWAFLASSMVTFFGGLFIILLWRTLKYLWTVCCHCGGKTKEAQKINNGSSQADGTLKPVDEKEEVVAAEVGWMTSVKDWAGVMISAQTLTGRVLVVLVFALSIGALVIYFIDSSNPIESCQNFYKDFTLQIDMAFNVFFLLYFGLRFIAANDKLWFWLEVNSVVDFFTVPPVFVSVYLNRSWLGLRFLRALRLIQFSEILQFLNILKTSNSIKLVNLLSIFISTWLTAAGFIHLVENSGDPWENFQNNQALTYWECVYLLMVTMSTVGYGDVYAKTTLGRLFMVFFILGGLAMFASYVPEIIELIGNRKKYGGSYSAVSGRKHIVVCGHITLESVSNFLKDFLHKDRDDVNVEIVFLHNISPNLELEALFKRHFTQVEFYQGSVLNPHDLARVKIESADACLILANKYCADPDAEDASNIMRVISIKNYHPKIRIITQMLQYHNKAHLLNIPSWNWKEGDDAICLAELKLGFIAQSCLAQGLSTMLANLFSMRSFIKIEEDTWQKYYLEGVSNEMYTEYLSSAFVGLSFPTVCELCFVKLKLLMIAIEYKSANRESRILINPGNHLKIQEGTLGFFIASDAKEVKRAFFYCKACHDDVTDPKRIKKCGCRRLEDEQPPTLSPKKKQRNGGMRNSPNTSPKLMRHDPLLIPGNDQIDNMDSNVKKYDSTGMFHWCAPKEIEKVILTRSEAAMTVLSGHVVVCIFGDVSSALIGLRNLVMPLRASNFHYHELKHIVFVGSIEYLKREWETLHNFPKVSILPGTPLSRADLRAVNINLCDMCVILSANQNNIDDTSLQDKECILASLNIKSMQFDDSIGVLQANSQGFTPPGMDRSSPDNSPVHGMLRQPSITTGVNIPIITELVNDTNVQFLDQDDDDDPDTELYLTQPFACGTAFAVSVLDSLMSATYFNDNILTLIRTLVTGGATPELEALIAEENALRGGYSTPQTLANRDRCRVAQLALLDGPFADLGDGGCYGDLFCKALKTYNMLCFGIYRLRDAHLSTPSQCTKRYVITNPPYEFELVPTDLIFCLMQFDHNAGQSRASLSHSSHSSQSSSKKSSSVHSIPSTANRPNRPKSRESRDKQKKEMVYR

Assays:
[1] = target: cbv1+β1 channels (UniProt Q16558+Q62976); experiment: Patch-clamp of heteromeric cbv1+β1 channels expressed in Xenopus oocytes; type: cell-based, rat
From the text: cRNA Preparation and Injection into Xenopus Oocytes. Full-length cDNA coding for cbv1-subunits was cloned from rat cerebral artery myocytes by PCR and ligated to the PCR-XL-TOPO cloning vector (Invitrogen Corp., Carlsbad, Calif., United States of America) (Jaggar et al., 2005). cDNA coding for cbv1-subunits was cleaved from the cloning vector by BamHI (Invitrogen Corp., Carlsbad, Calif., United States of America) and XhoI (Promega, Madison, Wis., United States of America) and directly inserted into the pOX vector for expression in Xenopus oocytes. pOX-cbv1 was linearized with NotI (Promega, Madison, Wis., United States of America) and transcribed in vitro using T3 polymerase. Beta,-subunit cDNA inserted into the EcoR I/Sal I sites of the pCl-neo expression vector was linearized with NotI and transcribed in vitro using T7 polymerase. Beta4-subunit cDNA inserted into the pOx vector was linearized by NotI and transcribed using T3 polymerase. The mMessage-mMachine kit (Ambion Inc., Austin, Tex., United States of America) was used for transcription. The pOX vector and the cDNA coding for β1-subunits were generous gifts from Aguan Wei (Washington University, Saint Louis, Mo., United States of America) and Maria Garcia (Merck Research Laboratories, Whitehouse Station, N.J., United States of America).
Oocytes were removed from Xenopus laevis and prepared as described (Dopico et al., 1998). cRNA was dissolved in […] at 5 (cbv1) and 15 (β1 or β4) ng/μl; 1-μl aliquots were stored at −70° C. Cbv1 cRNA was injected alone (2.5 ng/μp) or coinjected with either β1 or β4 (7.5 ng/μl) cRNAs, giving molar ratios ≧6:1 (β:α). cRNA injection (23 nl/oocyte) was conducted using a modified micropipette (Drummond Scientific Co., Broomall, Pa., United States of America). The interval between injection and patch-clamp recordings was 48-72 h.
Electrophysiology. Oocytes were prepared for patch-clamp recordings as described (Dopico et al., 1998). Single-channel and macroscopic currents were recorded from inside-out (I/O) or outside-out (O/O) patches. For experiments with oocytes, both bath and electrode solutions contained (mM) 135 K^+ gluconate, 5 EGTA, 1 MgCl2, 15 HEPES, 10 glucose, pH 7.35. For experiments with myocytes, KCl substituted for K^+ gluconate. In all experiments, free Ca^2+ in solution was adjusted to the desired value by adding CaCl2. In most studies, free Ca^2+ in electrode solution=10 μM. In O/O studies with 17β-estradiol, however, free Ca^2+ in the electrode solution=0.3 μM. Nominal free Ca^2+ was calculated with MaxChelator Sliders (C. Patton, Stanford University, California, United States of America) and validated experimentally using Ca^2+-selective electrodes (Corning Incorporated Science Products Division, Corning, N.Y., United States of America).
Patch-recording electrodes were made as described (Dopico et al., 1998). Immediately before recording, the tip of each electrode was fire-polished on a microforge WPI MF-200 (World Precision Instruments, Inc., Sarasota, Fla., United States of America) to give resistances of 5-9 MD when filled with solution. An agar bridge with gluconate or Cl^− as the main anion (for oocyte and myocyte experiments, respectively) was used as ground electrode. After excision from the cell, the membrane patch was exposed to a stream of bath solution containing each agent at final concentration. Solutions were applied onto the patches using a pressurized system DAD12 (ALA Scientific Instruments, New York, N.Y., United States of America) via a micropipette tip with an internal diameter of 100 μm. Experiments were carried out at room temperature (21° C.).
(§1) Currents were recorded using an EPC8 amplifier (HEKA Electronics, Lambrecht/Pfalz, Germany) at 1 kHz using a low-pass, eight-pole Bessel filter 902LPF (Frequency Devices, Haverhill, Mass., United States of America). […]

[2] = tested on: pressurized resistance cerebral arteries; experiment: Artery diameter measurement, pressurized rat middle cerebral arteries
Method: (§2) Artery Diameter Measurement. Middle cerebral arteries were isolated from adult male Sprague-Dawley rats (=250 g) or 8- to 12-week-old β1-knockout and C57BL/6 control mice. Rats and mice were decapitated using a guillotine and sharp scissors, respectively. These procedures were approved by the Institutional Animal Care and Use Committee from The University of Tennessee Health Science Center, an AMLAC-accredited institution. Pressurization of arteries was performed as described (Liu et al., 2004). Endothelium was removed by passing an air bubble into the vessel lumen for 90 sec. Diameter changes were monitored through an inverted microscope (Nikon Eclipse TS100, Nikon Corp., Tokyo, Japan), recorded on camera (Sanyo VCB-3512T, Sanyo Electric Corp., Japan), and transferred to a computer. Diameter data were acquired and analyzed using IonWizard 4.4 software (IonOptics Corp., Milton, Mass., United States of America). […]
(§3) Data Analysis. […] Arterial diameter and electrophysiological data were analyzed with IonWizard 4.4 (IonOptics Corp., Milton, Mass., United States of America) and pCLAMP 8.0 (Molecular Devices, Union City, Calif., United States of America). […]

[3] = tested on: pressurized cerebral arteries from β1-knockout (KCNMB1-knockout) mice; experiment: Artery diameter measurement, pressurized cerebral arteries from BK β1-knockout mice; parameters: species or system mouse; conditions: 45 μM
Method: as §2, §3
To determine the impact of LC targeting of BK β1-subunits on organ function, LC action on the arterial diameter of pressurized cerebral arteries was evaluated from β1-knockout vs. wt C57BU6 mice (controls). […]

[4] = target: T1, homomeric cbv1 (rslo1) channels (Rattus norvegicus, UniProt Q62976); experiment: Inside-out patch-clamp of homomeric cbv1 channels expressed in Xenopus oocytes; type: cell-based; conditions: 300 μM
T1 construct: Full-length cDNA coding for cbv1-subunits was cloned from rat cerebral artery myocytes by PCR; expressed in transfected cells; host or cells: Xenopus laevis oocytes (cRNA injection)
From the text: cRNA Preparation and Injection into Xenopus Oocytes. Full-length cDNA coding for cbv1-subunits was cloned from rat cerebral artery myocytes by PCR and ligated to the PCR-XL-TOPO cloning vector (Invitrogen Corp., Carlsbad, Calif., United States of America) (Jaggar et al., 2005). cDNA coding for cbv1-subunits was cleaved from the cloning vector by BamHI (Invitrogen Corp., Carlsbad, Calif., United States of America) and XhoI (Promega, Madison, Wis., United States of America) and directly inserted into the pOX vector for expression in Xenopus oocytes. pOX-cbv1 was linearized with NotI (Promega, Madison, Wis., United States of America) and transcribed in vitro using T3 polymerase. […]
Electrophysiology. […] Single-channel and macroscopic currents were recorded from inside-out (I/O) or outside-out (O/O) patches. […] Nominal free Ca^2+ was calculated with MaxChelator Sliders (C. Patton, Stanford University, California, United States of America) and validated experimentally using Ca^2+-selective electrodes (Corning Incorporated Science Products Division, Corning, N.Y., United States of America). […]
as §1

Row | SMILES | Long close state(s) as share of total close events ([1]; 150 μM, patches with N=1) [%] | Long open state(s) as share of total open events ([1]; 150 μM, patches with N=1) [%] | Emax (concentration of maximal effect) ([1]; I/O patches, Ca2+i 10 μM, ±20 mV) | Slope of Hill-like (logit-log) plot (apparent Hill coefficient) ([1]; LC activation of NPo) | Effective valence (z) ([1]; in presence of 150 μM LC, 10 μM free Ca2+i) | Unitary conductance ([1]; in presence of LC, symmetric 135 mM K+) [pS] | Potentiation of BK NPo ([1]; zero Ca2+ added plus 10 mM EGTA, +80 mV) | Increase in diameter of de-endothelized arteries ([2]; endothelium-denuded vs intact arteries) | Dilation of arteries [3] | Potentiation of channels [4] | Vasodilation in de-endothelized arteries ([2]; 10 μM, endothelium-denuded arteries)
1 | C[C@H](CCC(=O)O)[C@H]1CC[C@H]2[C@@H]3CC[C@@H]4C[C@H](O)CC[C@]4(C)[C@H]3CC[C@]12C [LC, 5β-cholanic acid 3α-ol] | 34 | 57 | ~300 μM and ≈ 300 μM | 1.3 and 1.32 | 1.26±0.2 | 234.0±4.6 | unnoticeable | not significantly different from that of intact arteries | failed to dilate | fails to potentiate | –
2 | CC(=O)OCC[N+](C)(C)C [acetylcholine, reference compound] | – | – | – | – | – | – | – | – | – | – | lost
